Measurements as given in article PMC7494117.
These are yes or no findings as the source states them, for the method shown. Binding seen in cells or lysates may run through a third protein. Some results given as binding are weak or reduced against the parent protein; the word gives no strength.

Sequences of proteins named here, by UniProt entry; tags and fusion partners are left off.
UniProt P15682: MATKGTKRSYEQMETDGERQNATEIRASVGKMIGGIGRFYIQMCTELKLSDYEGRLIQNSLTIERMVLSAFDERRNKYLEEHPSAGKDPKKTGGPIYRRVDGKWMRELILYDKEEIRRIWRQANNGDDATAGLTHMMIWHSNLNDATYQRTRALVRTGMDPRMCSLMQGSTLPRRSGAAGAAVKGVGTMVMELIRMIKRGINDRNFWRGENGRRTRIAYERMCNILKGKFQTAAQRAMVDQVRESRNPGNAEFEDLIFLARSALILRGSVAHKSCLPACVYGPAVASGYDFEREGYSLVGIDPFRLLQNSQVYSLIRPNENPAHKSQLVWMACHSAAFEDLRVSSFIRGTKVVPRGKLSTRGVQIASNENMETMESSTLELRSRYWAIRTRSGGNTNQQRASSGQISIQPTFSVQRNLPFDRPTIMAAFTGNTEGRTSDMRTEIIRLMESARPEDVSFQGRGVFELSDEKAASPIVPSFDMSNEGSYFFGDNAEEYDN
UniProt P03430: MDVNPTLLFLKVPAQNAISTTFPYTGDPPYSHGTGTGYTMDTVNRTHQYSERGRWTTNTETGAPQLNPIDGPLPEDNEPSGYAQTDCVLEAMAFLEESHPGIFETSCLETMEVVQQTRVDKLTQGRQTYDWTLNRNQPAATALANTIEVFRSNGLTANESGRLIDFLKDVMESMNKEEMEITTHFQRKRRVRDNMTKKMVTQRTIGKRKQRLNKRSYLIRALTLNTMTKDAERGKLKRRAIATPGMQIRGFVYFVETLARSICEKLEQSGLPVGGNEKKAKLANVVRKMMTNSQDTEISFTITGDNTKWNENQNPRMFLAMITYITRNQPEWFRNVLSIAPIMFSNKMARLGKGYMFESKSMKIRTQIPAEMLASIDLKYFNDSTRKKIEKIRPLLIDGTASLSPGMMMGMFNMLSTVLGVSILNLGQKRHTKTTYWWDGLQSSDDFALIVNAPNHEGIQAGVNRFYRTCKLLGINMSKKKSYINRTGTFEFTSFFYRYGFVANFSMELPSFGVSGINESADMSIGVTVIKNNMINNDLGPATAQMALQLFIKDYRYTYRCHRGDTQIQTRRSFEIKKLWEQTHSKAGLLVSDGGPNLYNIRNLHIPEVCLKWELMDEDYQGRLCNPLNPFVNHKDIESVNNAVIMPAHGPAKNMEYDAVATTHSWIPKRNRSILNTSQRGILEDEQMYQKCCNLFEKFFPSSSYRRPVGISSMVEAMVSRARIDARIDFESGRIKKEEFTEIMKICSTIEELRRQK

Biological target: nucleoprotein NP (A/WSN/1933) (influenza A virus A/WSN/1933) (UniProt P15682)
Assay: co-IP

“FLAG-tagged PB1 (wild type, A/WSN/1933) (from UniProt P03430 1-757)” was tested, and the binding was “binds”.
